# Reference: the supplement of paper PMC9135407
# Several values for one entry are separate records, joined by “and”; a condition that tells them apart may be missing. Identical values can stand only once. Counter-ions that a name gives are not always drawn. ± gives the standard deviation of the averaged measurements. The list shows a part of the results. Plates or batches differ in their baseline, so values are only roughly comparable.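 Primary human stellate myofibroblasts activated in culture; inactivation shown by regained lipid droplets. Readout: fraction of Hoechst-counted cells exceeding a per-plate Bodipy threshold, duplicate wells, each plate with DMSO negative and nortriptyline positive controls. Hits: control-normalized score beyond the plate's top-tenth-percentile nortriptyline wells, or among its three best wells. Final well concentrations unstated.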
# System: primary human hepatic stellate cells (donor 1)
# Test: percent Bodipy-positive cells; higher = more lipid droplet accumulation
# Conditions: 48 h
# [1] = library stock concentration: 1 mM
# [2] = library stock concentration: 10 mM
# [3] = library stock concentration: 3.33 mM
smiles,measurement,setting,value
CCCCCCCCCCCCCCCCOC[C@@H](O)COP(=O)([O-])OCC[N+](C)(C)C,percent Bodipy-positive cells,[1],14.2% and 10.3%
"CC12NC(Cc3ccccc31)c1ccccc12 (single isomer, unassigned; (+)) [(+)-MK 801 maleate]",percent Bodipy-positive cells,[2],19 ± 2%
CCN1CCN(C(=O)Cc2ccc(Nc3ncc(F)c(Nc4ccc(C(=O)Nc5ccccc5Cl)cc4)n3)cc2)CC1 [Aurora A Inhibitor I],percent Bodipy-positive cells,[2],97.9 ± 1.9%
CC(C)c1cccc(C(C)C)c1O [Propofol],percent Bodipy-positive cells,,20.9 ± 5.7%
same,percent Bodipy-positive cells,[2],62.6 ± 1.7%
CC(C)c1cccc(C(C)C)c1O,percent Bodipy-positive cells,[2],28.2 ± 2.3%
CCCCCC(=O)N[C@H]1CCOC1=O [N-hexanoyl-L-Homoserine lactone],percent Bodipy-positive cells,[1],6.79 ± 1.4%
Cc1nccc2c1[nH]c1cc(O)ccc12 [Harmol hydrochloride],percent Bodipy-positive cells,[2],58.2 ± 25%
Oc1ccc2c3c1O[C@H]1[C@@H](O)CC[C@@]4(O)[C@@H](C2)N(CC2CCC2)CC[C@]314 [Nalbuphine hydrochloride],percent Bodipy-positive cells,,33.4 ± 20%
same,percent Bodipy-positive cells,library stock concentration: 5.1 mM,29.5 ± 11%
same,percent Bodipy-positive cells,[2],31.1 ± 13%
Oc1ccc2c3c1O[C@H]1[C@@H](O)CC[C@@]4(O)[C@@H](C2)N(CC2CCC2)CC[C@]314 [Nalbuphine],percent Bodipy-positive cells,[2],16.2 ± 2.6%
O=C1CN=C(c2cccc(Br)c2)c2oc3ccccc3c2N1,percent Bodipy-positive cells,[2],21.5 ± 0.7%
COC1=CC(=O)O[C@@H](/C=C/c2ccccc2)C1 (racemic) [Kavain (+/-)],percent Bodipy-positive cells,library stock concentration: 21.7 mM,31.1 ± 7.2%
COC1=CC(=O)O[C@@H](/C=C/c2ccccc2)C1 [Kawain],percent Bodipy-positive cells,,34.5 ± 3.7%
O=C(O)CC[N+](=O)[O-] [3-Nitropropionic acid],percent Bodipy-positive cells,[2],25.7 ± 6.8%
CN1CCc2cc3c(cc2[C@H]1[C@@H]1OC(=O)c2c1ccc1c2OCO1)OCO3 [Bicuculline (+)],percent Bodipy-positive cells,,25.4 ± 0.74%
OCc1cnc[nH]1 [4-Imidazolemethanol hydrochloride],percent Bodipy-positive cells,[2],54.7 ± 4.7%
CO[C@H]1[C@H](O)[C@@H](O[C@H]2CC[C@]3(C=O)C4CC[C@]5(C)[C@@H](C6=CC(=O)OC6)CC[C@]5(O)C4CC[C@@H]3C2)O[C@@H](C)[C@@H]1O (stereo partly drawn) [Peruvoside],percent Bodipy-positive cells,[2],96.05 ± 0.25%
CC(=O)O[C@H]1CC[C@@]2(C)C(=CC[C@@H]3[C@@H]2CC[C@]2(C)C(=O)CC[C@@H]32)C1 [Prasterone acetate],percent Bodipy-positive cells,[2],46.3 ± 5.2%
CC(=O)O[C@H]1CC[C@@]2(C)C(=CC[C@@H]3[C@@H]2CC[C@]2(C)C(=O)CC[C@@H]32)C1 [Dehydroisoandosterone 3-acetate],percent Bodipy-positive cells,,9.79 ± 4.3%
O=C(NCNC(=O)NC1C(=O)NC(=O)N1CO)NC1C(=O)NC(=O)N1CO (stereo not drawn) [Imidurea],percent Bodipy-positive cells,,10.9 ± 2.5%
O=[N+]([O-])c1ncc[nH]1 [Azomycin],percent Bodipy-positive cells,[3],8.75 ± 2.5%
same,percent Bodipy-positive cells,[2],12.4 ± 2.1%
CO/C1=C\C(C)=C\[C@@H](C)[C@@H](O)[C@@H](C)C/C(C)=C/C=C/[C@H](OC)[C@@H]([C@@H](C)[C@@H](O)[C@H](C)[C@@]2(O)C[C@@H](O)[C@H](C)[C@@H](C(C)C)O2)OC1=O [Bafilomycin A1],percent Bodipy-positive cells,library stock concentration: 800 uM,98.81 ± 0.93%
CN1C[C@H](CNC(=O)OCc2ccccc2)C[C@@H]2c3cccc4c3c(cn4C)C[C@H]21 [Metergoline],percent Bodipy-positive cells,[2],98.5 ± 1.1%
CCCCCCCC/C=C\CCCCCCCC(=O)Nc1ccccc1 [Oleyl Anilide],percent Bodipy-positive cells,[1],12.8 ± 2.5%
C[C@H](CCC(=O)O)C[C@H](C)C[C@H](C)C(=O)/C=C(\O)[C@H](C)C[C@H](C)C/C=C/[C@@H](C)[C@@H](O)[C@@H](C)[C@@H](O)C[C@@H]1CC[C@@](C)([C@H]2CC[C@@](C)([C@@H](C)O)O2)O1 [Ionomycin],percent Bodipy-positive cells,library stock concentration: 7.1 mM,79.77 ± 0.32%
C[C@@H]1CC[C@@]2(OC1)O[C@H]1C[C@H]3[C@@H]4CC=C5C[C@@H](O[C@@H]6O[C@H](CO)[C@@H](O[C@@H]7O[C@@H](C)[C@H](O)[C@@H](O)[C@H]7O)[C@H](O)[C@H]6O[C@@H]6O[C@@H](C)[C@H](O)[C@@H](O)[C@H]6O)CC[C@]5(C)[C@H]4CC[C@]3(C)[C@H]1[C@@H]2C [Dioscin],percent Bodipy-positive cells,[3],98.7 ± 1.9%
same,percent Bodipy-positive cells,[2],100%
C=CCN1CC[C@]23c4c5ccc(O)c4O[C@H]2C(=O)CC[C@@]3(O)[C@H]1C5,percent Bodipy-positive cells,[2],35.7 ± 11%
C=CCN1CC[C@]23c4c5ccc(O)c4O[C@H]2C(=O)CC[C@@]3(O)[C@H]1C5 [Naloxone hydrochloride],percent Bodipy-positive cells,,20.6 ± 5.6%
same,percent Bodipy-positive cells,[2],11.5% and 25.2% and 8.47%
C=CCN1CC[C@]23c4c5ccc(O)c4O[C@H]2C(=O)CC[C@@]3(O)[C@H]1C5 [Naloxone HCl],percent Bodipy-positive cells,library stock concentration: 6.1 mM,7.23 ± 2.6%
NC(=O)c1cc(N2CC2)c([N+](=O)[O-])cc1[N+](=O)[O-],percent Bodipy-positive cells,[2],41.4 ± 15%
Cn1cc(C2=C(c3cn(C4CCN(Cc5ccccn5)CC4)c4ccccc34)C(=O)NC2=O)c2ccccc21,percent Bodipy-positive cells,library stock concentration: 80 uM,12.5 ± 5.9%
same,percent Bodipy-positive cells,library stock concentration: 400 uM,11.6 ± 3.6%
same,percent Bodipy-positive cells,library stock concentration: 2 mM,9.67 ± 1.5%
same,percent Bodipy-positive cells,[3],6.99 ± 3.2%
same,percent Bodipy-positive cells,[2],11.7% and 15.1%
O=c1n(Cl)c(=O)n(Cl)c(=O)n1Cl,percent Bodipy-positive cells,[2],29.3 ± 1.8%
CP(=O)(O)C1=CCNCC1,percent Bodipy-positive cells,[2],13.9 ± 0.31%
C[C@@H]1O[C@H](C[N+](C)(C)C)C[C@H]1O [(?)-Muscarine chloride],percent Bodipy-positive cells,[2],48.6 ± 3.1%
CCCCC[C@@H](/C=C/C=C\C/C=C\C/C=C\CCCC(=O)O)OO,percent Bodipy-positive cells,library stock concentration: 100 uM,7.24 ± 4.6%
CCCC(C)C1(CC)C(=O)NC(=O)NC1=O (stereo not drawn) [Pentobarbital],percent Bodipy-positive cells,library stock concentration: 8.8 mM,2.97 ± 0.14%
C=CCc1ccc2c(c1)OCO2 [Safrole],percent Bodipy-positive cells,[2],29.3 ± 0.45%
COP(=O)(OC)C(O)C(Cl)(Cl)Cl (stereo not drawn) [Trichlorfon],percent Bodipy-positive cells,,31.5 ± 5.7%
C[C@]12C[C@H]3S[C@H]3C[C@@H]1CC[C@@H]1[C@@H]2CC[C@]2(C)[C@@H](O)CC[C@@H]12 [Epitiostanol],percent Bodipy-positive cells,,11.2 ± 3.7%
c1ccc(Cn2ccnc2)cc1,percent Bodipy-positive cells,[2],15.7 ± 0.26%
Cc1cccc(Cc2c[nH]cn2)c1C [Detomidine HCl],percent Bodipy-positive cells,[3],13.3 ± 6.2%
same,percent Bodipy-positive cells,[2],44.3 ± 30%
CN1CC[C@]2(CCN3CCc4c(oc5ccccc45)[C@@H]3C2)N(C)C1=O,percent Bodipy-positive cells,[2],45 ± 21%
N#CC(C#N)=Cc1ccc(O)c(O)c1 [Tyrphostin 23],percent Bodipy-positive cells,[2],17.5 ± 5.2%
S=C=NCc1ccccc1 [Benzyl isothiocyanate],percent Bodipy-positive cells,[2],38.9 ± 3.3%
CCCC[N+]1(C)[C@@H]2C[C@@H](OC(=O)[C@H](CO)c3ccccc3)C[C@H]1[C@@H]1O[C@@H]12 (stereo partly drawn) [Butylscopolamine Bromide],percent Bodipy-positive cells,[3],5.412 ± 0.05%
same,percent Bodipy-positive cells,[2],7.53 ± 0.37%
COP(=O)(OC)OC=C(Cl)Cl [Dichlorvos],percent Bodipy-positive cells,library stock concentration: 9.1 mM,7.56 ± 0.63%
C[C@H]1CC[C@]2(NC1)O[C@H]1C[C@H]3[C@@H]4CC[C@H]5C[C@@H](O)CC[C@]5(C)[C@H]4CC[C@]3(C)[C@H]1[C@@H]2C [Tomatidine],percent Bodipy-positive cells,,35.3 ± 3.3%
